Where “and” joins values, the source holds several entries; their conditions need not be identical. Equal entries are not always repeated. Out of some 18,000 compounds screened, about 750 (4.2%) were called active. Inconclusive means that the source gave no clear call. Such entries were picked first, then a sample of the others. Calls come from the whole dose curve; tested in HEK293 cells. Potencies of inconclusive entries are doubtful fits and often do not repeat. Some compounds were tested as several samples or in several runs, with calls that do not always agree.
Assay: qHTS for Inhibitors of binding or entry into cells for Lassa Virus
Details: Lassa virus pseudotyped entry inhibition, cell-based qHTS; activity change, negative = inhibition: at 49.2 µM (top of the series) unless noted
% is set by controls: 0 for no effect and ±100 for the full control effect; potency is the fitted concentration of half-maximal effect.

SMILES | Potency | activity change, negative = inhibition
COc1ccccc1C(=O)N[C@@H]1c2ccccc2C2(CCN(Cc3ccc4c(c3)OCO4)CC2)[C@H]1O | inconclusive: 35.5 µM [inhibitor, single point] | 
N[C@H](CCCP(=O)(O)O)C(=O)O | inconclusive: 12.6 µM [inhibitor, full curve] | 
O[C@@H]1CN(CC2CCCCC2)[C@@H](c2ccccc2)C[C@@H]1n1cc(-c2ccc(F)cc2)nn1 | inconclusive: 14.1 µM [inhibitor, partial curve, poor fit] | 
CCCCCCN1C[C@@H](O)[C@H](n2cc(COC(=O)c3ccccc3)nn2)C[C@H]1c1ccc(Cl)cc1 |  | inactive: -23.7%
CC(=O)Oc1ccccc1C(=O)Nc1ncc([N+](=O)[O-])s1 | active: 7.94 µM | 
CCN(CC)CCOC(=O)C1(C2CCCCC2)CCCCC1 | inconclusive: 31.6 µM [inhibitor, partial curve, poor fit] | 
O=C1CC(c2ccccc2O)Oc2ccc(O)cc21 (stereo unspecified) | inconclusive: 11.2 µM [inhibitor, full curve] | 
C#C[C@]1(O)CC[C@H]2[C@@H]3CCC4=C/C(=N/O)CC[C@@H]4[C@H]3CC[C@@]21CC | inconclusive: 35.5 µM [inhibitor, single point] | 
CN(C)Cc1ccccc1-c1ccc2ncnc(NC3CCNCC3)c2c1 |  | inactive: 6.93%
O=Cc1ccccc1C=O | inconclusive: 31.6 µM [inhibitor, partial curve, poor fit] | 
CN(C)CCCN1c2ccccc2Sc2ccc(C(F)(F)F)cc21 | inconclusive: 25.1 µM [inhibitor, single point] | 
C[N+]1(C)CCC(OC(=O)C(O)(c2ccccc2)C2CCCC2)C1 (stereo unspecified) | inconclusive: 2.24 µM [inhibitor, full curve, poor fit] | 
CCC1CN(CC(=O)NCc2ccc3c(c2)OCO3)Cc2ccc(Cl)cc2O1 (stereo unspecified) |  | inactive: 21.9%
COC(=O)C1=C(C(=O)OC)[C@@H]2N(C)c3ccccc3[C@@]23CCC(=O)N(Cc2ccc(OC)cc2)C3=N1 |  | inactive: 0.621% [at 8.59 µM]
CC1=CC[C@@]2(CO)COC(c3ccccc3O)C1C2 (stereo partly specified) | inconclusive: 10 µM [inhibitor, partial curve] | 
COCCN1C(=O)NC(c2ccc(Br)cc2)C(C(C)=O)=C1C (stereo unspecified) |  | inactive: 2.23% [at 8.59 µM]
NC(=NC1C2CC3CC(C2)CC1C3)Nc1ccc(I)cc1 (stereo unspecified) | active: 20 µM and active: 8.91 µM | 
C[N+](C)(C)CCOC(=O)C(O)(c1ccccc1)c1ccccc1 |  | inactive: -17%
CC1(C)CN(Cc2ccccc2)C(=O)[C@@H]1CC(=O)Nc1ccc(Br)cc1 |  | inactive: -10%
Cc1cccc(C)c1Nc1ncccc1C(=O)O | inconclusive: 35.5 µM [inhibitor, single point] | 

Taken from above.
O=C1CC(c2ccccc2O)Oc2ccc(O)cc21 (stereo unspecified) | Potency: inconclusive: 11.2 µM [inhibitor, full curve]
CCCCCCN1C[C@@H](O)[C@H](n2cc(COC(=O)c3ccccc3)nn2)C[C@H]1c1ccc(Cl)cc1 | activity change, negative = inhibition: inactive: -23.7%
O[C@@H]1CN(CC2CCCCC2)[C@@H](c2ccccc2)C[C@@H]1n1cc(-c2ccc(F)cc2)nn1 | Potency: inconclusive: 14.1 µM [inhibitor, partial curve, poor fit]
C#C[C@]1(O)CC[C@H]2[C@@H]3CCC4=C/C(=N/O)CC[C@@H]4[C@H]3CC[C@@]21CC | Potency: inconclusive: 35.5 µM [inhibitor, single point]

The listing continues:

SMILES | Potency | activity change, negative = inhibition
Cc1ccccc1OCC(O)CNCCOc1ccc(C(N)=O)cc1 (stereo unspecified) |  | inactive: -1.03%
CC(=O)OCC(=O)[C@H]1CC[C@H]2[C@@H]3CC[C@H]4C[C@H](O)CC[C@]4(C)[C@H]3C(=O)C[C@]12C |  | inactive: -3.42% [at 17.8 µM]
COC(=O)C1=C(C)NC(C)=C(C(=O)OCCNCc2ccccc2)C1c1cccc([N+](=O)[O-])c1 (stereo unspecified) | inconclusive: 20 µM [inhibitor, single point] | 
CCCNC(=O)OC[C@H]1O[C@H](CCON=C(C)CCN2CCCCc3nc(C)c(C)cc32)C=C[C@H]1Oc1ccc(OC)cc1 |  | inactive: -21.5% [at 8.59 µM]
CCCC=Cc1ccc(CN2C(CC(C)C)C(=O)N(Cc3cn(CCOCOC)nn3)CCS2(=O)=O)cc1 (stereo unspecified) | inconclusive: 12.5 µM [inhibitor, partial curve, poor fit] | 
CC(C)(C=O)Cc1cc(C(C)(C)C)c(O)c(C(C)(C)C)c1 | inconclusive: 28.2 µM [inhibitor, partial curve] | 
O=C(NC[C@@H]1CCCN2CCCC[C@H]12)c1cnn(-c2nccc(-c3cc4ccccc4o3)n2)c1C1CC1 | inconclusive: 35.5 µM [inhibitor, single point] | 
COc1ccc(C(=O)c2c(C)n(CCN3CCOCC3)c3cc(I)ccc23)cc1 | inconclusive: 25.1 µM [inhibitor, partial curve] | 
O=P1(NCCCl)OCCCN1CCCl (stereo unspecified) |  | inactive: 0.214% [at 17.8 µM]
COc1ccc2c(=O)c(OC)c(-c3ccccc3)oc2c1 | inconclusive: 3.55 µM [inhibitor, partial curve, poor fit] | 
Cc1cc(-c2ccc(N=Nc3ccc4c(S(=O)(=O)O)cc(S(=O)(=O)O)c(N)c4c3O)c(C)c2)ccc1N=Nc1ccc2c(S(=O)(=O)O)cc(S(=O)(=O)O)c(N)c2c1O | inconclusive: 12.6 µM [inhibitor, partial curve] and inconclusive: 35.5 µM [inhibitor, partial curve] and inconclusive: 15.8 µM [inhibitor, partial curve] | 
C=CCN=C1NC(c2cccc(C(F)(F)F)c2)C(C(=O)OC)=C(C)N1CC (stereo unspecified) |  | inactive: -27.1% [at 8.59 µM]
COc1ccc2c(c1OC)C(Cc1ccccc1)N1CCc3cc4c(cc3C1=C2)OCO4 (stereo unspecified) | active: 25.1 µM | 
OC[C@@H]1[C@@H](c2ccc(Cl)cc2)C(c2ccccc2)=NN1c1ccccc1 | inconclusive: 22.4 µM [inhibitor, single point] | 
COc1cc(/C=C/C(=O)O[C@H]2CC[C@]34C[C@]35CC[C@]3(C)[C@@H]([C@H](C)CCC=C(C)C)CC[C@@]3(C)[C@@H]5CC[C@H]4C2(C)C)ccc1O | active: 25.1 µM | 
COc1ccccc1-c1ccc2ncnc(NCc3cccnc3)c2c1 | inconclusive: 17.8 µM [inhibitor, single point] | 
COc1ccc(CNc2nc(NCc3ccc(OC)cc3)c3ncn(C(C)C)c3n2)cc1 | inconclusive: 2.82 µM [inhibitor, partial curve] | 
O=C(/C=C/c1ccc(O)c(O)c1)OC(Cc1ccc(O)c(O)c1)C(=O)O (stereo unspecified) | inactive | 
CCNC(=O)NCCCOc1cccc(CN2CCCCC2)c1 | inconclusive: 2.51 µM [inhibitor, full curve] | 
C=C1CC[C@H](O)C/C1=C/C=C1\CCC[C@]2(C)[C@@H]([C@H](C)CCCC(C)C)CC[C@@H]12 | inconclusive: 20 µM [inhibitor, single point] | 
O=C(C1CCCCC1)N1C[C@H](O)[C@H](n2cc(-c3ccc(F)cc3)nn2)C[C@@H]1c1ccc(Cl)cc1 | inconclusive: 15.8 µM [inhibitor, partial curve, poor fit] | 

SMILES | Potency | activity change, negative = inhibition
CO[C@H]1C=CO[C@@]2(C)Oc3c(C)c(O)c4c(O)c(c5c(c4c3C2=O)=NC2(CCN(CC(C)C)CC2)N=5)NC(=O)/C(C)=C\C=C/[C@H](C)[C@H](O)[C@@H](C)[C@@H](O)[C@@H](C)[C@H](OC(C)=O)[C@@H]1C | inconclusive: 35.5 µM [inhibitor, single point] | 
COCCN1C(=O)N[C@@H](c2cccs2)C(C(=O)OC)=C1C | inconclusive: 35.5 µM [inhibitor, single point] | 
COc1ccc2c(c1)OC(=O)CC2c1cc(OC)c(OC)c(OC)c1 (stereo unspecified) | inconclusive: 31.6 µM [inhibitor, single point] | 
CN(C)Cc1ccccc1-c1cncnc1NC1CC1 |  | inactive: 1.22%
CCCCN(CCCC)CCCOC(=O)c1ccc(N)cc1 | inconclusive: 20 µM [inhibitor, single point] | 
O=C(Nc1cccc(C(F)(F)F)c1)OCCN1CCN(Cc2ccccc2)CCC1=O | inconclusive: 39.8 µM [inhibitor, single point] | 
C/C(=N\O)c1ccc(OCC(=O)N2CCCCC2)cc1 |  | inactive: 8.6%
COc1ccc(C(CCN2CCOCC2)c2c(OC)cc(OC)c3c(-c4ccccc4)cc(=O)oc23)cc1 (stereo unspecified) | inconclusive: 4.47 µM [inhibitor, full curve] | 
Cc1cc(C)nc(S[C@H]2C[C@@H](C(=O)N3CCN(c4ccccc4F)CC3)N(Cc3ccccc3F)C2)n1 | inconclusive: 2.24 µM [inhibitor, full curve, poor fit] | 
CS[C@@H]1SC[C@H]2C(=O)N(C)C(C(C)C)C(=O)OC[C@@H](NC(=O)c3cnc4ccccc4n3)C(=O)N[C@@H](C)C(=O)N(C)[C@H]1C(=O)N(C)C(C(C)C)C(=O)OC[C@@H](NC(=O)c1cnc3ccccc3n1)C(=O)N[C@@H](C)C(=O)N2C (stereo partly specified) | inconclusive: 0.891 µM [inhibitor, full curve] | 
Oc1cc2c(cc1O)[C@H]1c3ccc(O)c(O)c3OC[C@@]1(O)C2 |  | inactive: -14.2%
COC(=O)C1=C(C)N(Cc2ccco2)C(=O)NC1c1ccco1 (stereo unspecified) |  | inactive: -25.6% [at 8.59 µM]
Cc1cc(=O)c2c(O)c3c(O)cc(=O)c4c3c3c(cc(O)c1c23)C(C)(C)C=4O | active: 2.82 µM and active: 6.31 µM | 
COc1cc(=O)n2c(c1C(=O)N(C)Cc1nonc1C)CCN(CC1CC=CCC1)CC2 (stereo unspecified) |  | inactive: -11.3%
Cc1ccc(C(=O)Nc2cccc(-c3nc(CNC(=O)c4ccc(F)cc4Cl)c(C)o3)c2)s1 | inconclusive: 35.5 µM [inhibitor, single point] | 
CCOC(=O)C1=C(C)c2ccccc2N(C(=O)OC)C1(C)C(=O)OCC (stereo unspecified) | inconclusive: 35.5 µM [inhibitor, single point] | 
CC(=O)OC1CCC23C(=O)OC45CCC(C6=CC(=O)OC6)C4(C)CCC2C5CCC3(O)C1 (stereo unspecified) | active: 1.26 µM | 
COc1ccccc1-c1cncnc1NCc1cccc(C)c1 |  | inactive: -4.79%
COc1c(-c2coc3cc4c(cc3c2=O)CC(O)C(C)(C)O4)ccc2c1C=CC(C)(C)O2 (stereo unspecified) | inconclusive: 17.8 µM [inhibitor, single point] | 

From PubChem BioAssay AID720533 (National Center for Advancing Translational Sciences (NCATS), 2013)
